# In PubChem BioAssay AID504467 (National Center for Advancing Translational Sciences (NCATS), 2011):
# In all, about 330,000 compounds went through this assay and about 7,700 (2.3%) were called active. The inconclusive results got no clear call from the source; some entries with a clear call stand among them for comparison. Calls follow the shape of the dose curve; as a rule, active = well fitted inhibition curve with a large enough effect; inconclusive = small, poorly fitted or top-dose-only effect, or effect the other way; inactive = flat fitted curve, though single readings scatter. A potency beside an inconclusive call is a rough fit, not a confirmed value.
# Experiment: qHTS screen for small molecules that inhibit ELG1-dependent DNA repair in human embryonic kidney (HEK293T) cells expressing luciferase-tagged ELG1; also: nearly all actives have a fitted effect of over 55% in size
# Conditions: HEK293T ELG1-luciferase reporter, luminescence, 16 h, DNA damage induced by 5-fluorouridine; series mostly up to 46.1 µM
# How it was run: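 Cells (2,000 per well) received 5-fluorouridine plus test compound or DMSO and were incubated 16 hr at 37 °C, 5% CO2. Luciferase activity was read by luminescence 30 min after ONE-Glo addition; signal suppression marked inhibition of damage-induced ELG1 function.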
# Potency is read from the fitted curve at half-maximal effect.
row,Compound,Potency
1,O=C(Cn1cnc2c(oc3ccccc32)c1=O)c1ccccc1,"inconclusive: 16.4 µM [activator, partial curve]"
2,COc1ccc(Br)cc1CN1CCN(S(=O)(=O)Cc2ccccc2)CC1,inactive
3,O=C(Nc1ccc2nn(-c3ccccc3)nc2c1)c1ccco1,"inconclusive: 5.17 µM [activator, partial curve]"
4,Cc1ccc(S(=O)(=O)C(C#N)c2nc3ccccc3nc2OCCO)cc1 (stereo not drawn),"inconclusive: 29.1 µM [inhibitor, single point]"
5,O=C(N1CCN(c2ccccn2)CC1)C(Cl)(Cl)Cl,"inconclusive: 18.4 µM [activator, single point]"
6,CCN(C[C@H]1N[C@@](Cc2ccccc2)(C(=O)OC)[C@H]2C(=O)N(Cc3ccccc3)C(=O)[C@@H]12)S(=O)(=O)c1ccc(OC)cc1,"inconclusive: 8.2 µM [inhibitor, partial curve]"
7,Cc1cc(C)c(C#N)c(OCC(=O)c2ccc(Br)cc2)n1,inactive
8,O=C(Cc1ccc(Cl)cc1)Nc1ccc(C(=O)N2CCCCC2)cc1,inactive
9,O=C1c2ccc(Br)cc2C(=O)N1c1ccc(Cc2ccncc2)cc1,inactive
10,S=C1NC[C@H](Cc2ccccc2)N1CCc1cccc2ccccc12,"inconclusive: 25.9 µM [inhibitor, partial curve, poor fit]"
11,CC(C)CNC(=O)NC(=O)COC(=O)c1ccccc1Sc1ccc(C(F)(F)F)cc1[N+](=O)[O-],inactive
12,CN(C)c1ccc(/C=N\NC(=O)c2csnn2)cc1,"inconclusive: 3.66 µM [activator, full curve]"
13,O=C(Cc1cccs1)N(c1ccc(Br)cc1)C1C=CS(=O)(=O)C1 (stereo not drawn),"inconclusive: 18.3 µM [activator, partial curve, poor fit]"
14,CCOc1ccc(/C=C2\SC(=O)N(CCNC(=O)C3COc4ccccc4O3)C2=O)cc1OC (stereo not drawn),"inconclusive: 20.6 µM [inhibitor, single point]"
15,CCCCOc1ccc(/C=C/C2=CC(C)(C)NC(=S)N2)cc1OCC,inactive
16,O=C(CCC(=O)OCC(=O)c1ccc([N+](=O)[O-])cc1)NC1CCCCC1,inactive
17,Cc1ccc(/C=N/Nc2nc(Cl)c(Cl)cc2Cl)s1,"inconclusive: 10.3 µM [activator, partial curve]"
18,CCN(CC)S(=O)(=O)c1cc(C(=O)Nc2cc(Cl)ccc2N2CCN(C)CC2)ccc1Cl,active: 18.4 µM
19,Cc1nc(N2CCOCC2)c2c(C)c(C(=O)Nc3ccc(F)cc3Cl)sc2n1,inactive
20,CCOC(=O)c1sc(NC(=O)Nc2ccccc2Cl)cc1C,"inconclusive: 0.411 µM [activator, full curve]"
21,Oc1ccc(-c2nnc(SCC3CCCCC3)o2)cc1,"inconclusive: 16.4 µM [activator, partial curve]"
22,CN(c1ccccc1)S(=O)(=O)c1cccc(C(=O)NNC(=O)c2ccccc2)c1,"inconclusive: 0.73 µM [inhibitor, partial curve, poor fit]"
23,C=CCN1C(C(=O)c2ccccc2)=C(OC(=O)COc2ccccc2)c2ccccc2S1(=O)=O,"inconclusive: 18.4 µM [inhibitor, single point]"

row,Compound,Potency
1,CCSc1nnc(NC(=O)c2ccco2)s1,"inconclusive: 23.1 µM [activator, partial curve]"
2,Cc1c(CC(=O)O)c(=O)oc2cc3oc4c(c3cc12)CCCC4,inactive
3,O=C(CN1CCN(c2ccccn2)CC1)Nc1cccc(S(=O)(=O)N2CCOCC2)c1,"inconclusive: 29.1 µM [inhibitor, single point]"
4,Cc1cccn2c(=O)c(/C=C(\C#N)S(=O)(=O)c3ccccc3)c(N3CCCCC3)nc12,"inconclusive: 29.1 µM [inhibitor, partial curve, poor fit]"
5,O=C(Nc1nccs1)c1cncc(Br)c1,"inconclusive: 8.2 µM [activator, partial curve]"
6,NNC(=O)c1cc2sccc2s1,"inconclusive: 18.3 µM [inhibitor, single point]"
7,O=C1CCC(C(=O)N2CCC(CO)(Cc3ccc(Cl)cc3)CC2)=NN1,inactive
8,CCOC(=O)/C=c1\s/c(=C\c2ccccc2OC)c(=O)n1CC(=O)N1CCOCC1,"inconclusive: 29.1 µM [inhibitor, single point]"
9,C=CCc1ccc(OCC(O)CO)c(OC)c1 (stereo not drawn),"inconclusive: 16.4 µM [activator, single point]"
10,S=c1[nH]nc(-c2ccccn2)n1/N=C/c1cccc2ccccc12,inactive
11,CC1CCN(C(=O)COC(=O)/C=C/c2ccco2)CC1,"inconclusive: 16.4 µM [activator, partial curve]"
12,O=C1CCC/C1=C/Nc1cccc(F)c1,"inconclusive: 18.3 µM [activator, single point]"
13,CC1(C)OC(=O)C=C[C@]2(C)[C@H]3CC[C@@]4(C)[C@H](c5ccoc5)OC(=O)[C@H]5O[C@]54[C@]3(C)C(=O)C[C@@H]12,"inconclusive: 0.259 µM [inhibitor, single point]"
14,CN(C)S(=O)(=O)c1cccc(CNCC2COc3ccccc3O2)c1 (stereo not drawn),"inconclusive: 18.3 µM [inhibitor, single point]"
15,CN(C)c1ccnc(Oc2ccccc2)c1C#N,"inconclusive: 11.6 µM [activator, partial curve, poor fit]"
16,CCn1cc(C(=O)NCC2CCCO2)c(=O)c2cc(S(=O)(=O)N3CCCCCC3)ccc21 (stereo not drawn),"inconclusive: 20.6 µM [inhibitor, single point]"
17,O=C(Nc1ccc(/C=C/c2nc3ccccc3o2)cc1)c1cccc(C(F)(F)F)c1,"inconclusive: 23.1 µM [activator, partial curve]"
18,Nc1ncnc(Sc2ccccc2)c1[N+](=O)[O-],"inconclusive: 18.4 µM [inhibitor, partial curve, poor fit]"
19,N#C/C(=C\c1ccc(OC(=O)c2ccccn2)cc1)C(N)=O,"inconclusive: 18.4 µM [activator, partial curve, poor fit]"
20,Cc1noc(C)c1NC(=O)Nc1ccc2c(c1)C(=O)N([C@H](C)CO)C[C@H](C)[C@@H](CN(C)S(=O)(=O)c1cn(C)cn1)O2,"inconclusive: 11.6 µM [activator, partial curve]"
21,O=C(NCC(F)(F)F)Nc1nnc(C(F)(F)F)s1,active: 18.4 µM
22,COc1ccccc1CNS(=O)(=O)c1cc2c3c(c1)CCC(=O)N3CCC2,"inconclusive: 11.6 µM [inhibitor, partial curve, poor fit]"
23,O=C(Nc1ccc(S(=O)(=O)N2CCOCC2)cc1)c1ccc2ncsc2c1,"inconclusive: 11.6 µM [activator, partial curve]"

# Ordered by SMILES length (rising): some entries from above
row,Compound,Potency
6,NNC(=O)c1cc2sccc2s1,"inconclusive: 18.3 µM [inhibitor, single point]"
5,O=C(Nc1nccs1)c1cncc(Br)c1,"inconclusive: 8.2 µM [activator, partial curve]"
9,C=CCc1ccc(OCC(O)CO)c(OC)c1 (stereo not drawn),"inconclusive: 16.4 µM [activator, single point]"
15,CN(C)c1ccnc(Oc2ccccc2)c1C#N,"inconclusive: 11.6 µM [activator, partial curve, poor fit]"
18,Nc1ncnc(Sc2ccccc2)c1[N+](=O)[O-],"inconclusive: 18.4 µM [inhibitor, partial curve, poor fit]"
21,O=C(NCC(F)(F)F)Nc1nnc(C(F)(F)F)s1,active: 18.4 µM
11,CC1CCN(C(=O)COC(=O)/C=C/c2ccco2)CC1,"inconclusive: 16.4 µM [activator, partial curve]"
19,N#C/C(=C\c1ccc(OC(=O)c2ccccn2)cc1)C(N)=O,"inconclusive: 18.4 µM [activator, partial curve, poor fit]"
2,Cc1c(CC(=O)O)c(=O)oc2cc3oc4c(c3cc12)CCCC4,inactive
10,S=c1[nH]nc(-c2ccccn2)n1/N=C/c1cccc2ccccc12,inactive
7,O=C1CCC(C(=O)N2CCC(CO)(Cc3ccc(Cl)cc3)CC2)=NN1,inactive
23,O=C(Nc1ccc(S(=O)(=O)N2CCOCC2)cc1)c1ccc2ncsc2c1,"inconclusive: 11.6 µM [activator, partial curve]"
17,O=C(Nc1ccc(/C=C/c2nc3ccccc3o2)cc1)c1cccc(C(F)(F)F)c1,"inconclusive: 23.1 µM [activator, partial curve]"
8,CCOC(=O)/C=c1\s/c(=C\c2ccccc2OC)c(=O)n1CC(=O)N1CCOCC1,"inconclusive: 29.1 µM [inhibitor, single point]"
16,CCn1cc(C(=O)NCC2CCCO2)c(=O)c2cc(S(=O)(=O)N3CCCCCC3)ccc21 (stereo not drawn),"inconclusive: 20.6 µM [inhibitor, single point]"
4,Cc1cccn2c(=O)c(/C=C(\C#N)S(=O)(=O)c3ccccc3)c(N3CCCCC3)nc12,"inconclusive: 29.1 µM [inhibitor, partial curve, poor fit]"
20,Cc1noc(C)c1NC(=O)Nc1ccc2c(c1)C(=O)N([C@H](C)CO)C[C@H](C)[C@@H](CN(C)S(=O)(=O)c1cn(C)cn1)O2,"inconclusive: 11.6 µM [activator, partial curve]"
13,CC1(C)OC(=O)C=C[C@]2(C)[C@H]3CC[C@@]4(C)[C@H](c5ccoc5)OC(=O)[C@H]5O[C@]54[C@]3(C)C(=O)C[C@@H]12,"inconclusive: 0.259 µM [inhibitor, single point]"

# More entries.

row,Compound,Potency
1,Cc1cc(NC(=O)c2ccc3c(c2)OCO3)no1,"inconclusive: 16.4 µM [activator, partial curve]"
2,CN(C)S(=O)(=O)c1ccc(-c2cn3ccccc3n2)cc1,"inconclusive: 25.9 µM [inhibitor, single point]"
3,Cc1nc(SCc2nc3ccc(Br)cc3[nH]2)c2oc3ccccc3c2n1,"inconclusive: 23.1 µM [inhibitor, single point]"
4,O=C(Cn1ncc2ccccc21)N1CCN(c2cccc(C(F)(F)F)c2)CC1,inactive
5,CCN(CC)CCNc1nc2c(c(=O)[nH]c(=O)n2C)n1CC(O)COc1ccc(Cl)cc1Cl (stereo not drawn),inactive
6,Clc1ccccc1CSc1cc2c(nn1)-c1ccccc1CC2,"inconclusive: 16.4 µM [activator, partial curve]"
7,Cc1ccc(S(=O)(=O)Nc2ccc3nc(C)sc3c2)c(C)c1,inactive
8,COc1ccccc1NC(=O)C(C)Sc1nc(-c2ccccc2)cn1N (stereo not drawn),inactive
9,CCc1ccc(NC(=O)c2cc(C(C)C)on2)cc1,"inconclusive: 5.17 µM [activator, partial curve]"
10,COc1ccc(-n2c(-c3ccc(Br)cc3)nc(=S)c3c2CCCC3)cc1,inactive
11,COc1ccc2nc(NC(=O)c3cccc(OCc4c(C)noc4C)c3)sc2c1,active: 25.9 µM
12,N#Cc1cccc(NC(=O)COC(=O)c2cc(S(=O)(=O)Nc3ccccc3Cl)ccc2O)c1,"inconclusive: 16.4 µM [inhibitor, partial curve, poor fit]"
13,Cc1ccc(NC(=O)c2ccc(C(C)(C)C)cc2)cc1-n1cnnn1,inactive
14,CCN1/C(=C/c2sc(-c3ccccc3C)c[n+]2C)Sc2ccccc21,"inconclusive: 6.51 µM [inhibitor, partial curve, poor fit]"
15,CCOC(=O)N1CCN(C(=O)CSCc2ccccc2Cl)CC1,"inconclusive: 20.6 µM [activator, single point]"
16,COc1ccc(-c2nc(NC(=O)CSc3nnc(C)s3)ns2)cc1,"inconclusive: 18.4 µM [inhibitor, single point]"
17,Cc1cc(C(=O)N/N=C/c2cc(Br)c(Br)o2)n[nH]1,"inconclusive: 20.6 µM [activator, single point]"
18,COc1ccc(NC(=O)C(NC(=O)c2ccc(=O)[nH]c2)c2ccccc2)cc1 (stereo not drawn),inactive
19,CCCCOc1ccc(C2C(C(=O)c3ccc(C)o3)=C(O)C(=O)N2Cc2ccco2)cc1 (stereo not drawn),"inconclusive: 16.4 µM [inhibitor, partial curve, poor fit]"
20,CCOC(=O)C1=C(O)CSC1=Nc1cccc2ccccc12,inactive
21,Cc1ccc(COc2ccc(/C=N/O)cc2)cc1,"inconclusive: 7.31 µM [activator, partial curve]"
22,COc1cc(C(C)=O)ccc1OCC(=O)c1cc(C)n(C2CC2)c1C,"inconclusive: 6.31 µM [activator, partial curve]"
